# Measured values published in the supplement of paper PMC6411743.
# Sequences of proteins named here, by UniProt entry; tags and fusion partners are left off. A change or cut given only in a name is not applied to a line headed by its entry.
# UniProt Q9HA64: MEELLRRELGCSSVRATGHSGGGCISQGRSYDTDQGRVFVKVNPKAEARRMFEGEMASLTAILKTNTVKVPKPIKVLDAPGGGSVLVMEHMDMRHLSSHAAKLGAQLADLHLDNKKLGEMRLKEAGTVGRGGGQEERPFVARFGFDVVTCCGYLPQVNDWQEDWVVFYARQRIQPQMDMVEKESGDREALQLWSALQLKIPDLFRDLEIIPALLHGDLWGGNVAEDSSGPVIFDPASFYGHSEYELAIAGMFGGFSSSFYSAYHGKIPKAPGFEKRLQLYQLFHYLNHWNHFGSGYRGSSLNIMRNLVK
# UniProt Q9NPD3, whole entry: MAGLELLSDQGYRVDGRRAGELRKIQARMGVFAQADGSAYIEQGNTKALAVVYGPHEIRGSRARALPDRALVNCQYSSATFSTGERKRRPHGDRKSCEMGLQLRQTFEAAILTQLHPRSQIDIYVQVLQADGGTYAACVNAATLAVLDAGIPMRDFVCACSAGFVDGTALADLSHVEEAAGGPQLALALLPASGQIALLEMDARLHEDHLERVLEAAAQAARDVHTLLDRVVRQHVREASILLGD
# UniProt Q9H3R5: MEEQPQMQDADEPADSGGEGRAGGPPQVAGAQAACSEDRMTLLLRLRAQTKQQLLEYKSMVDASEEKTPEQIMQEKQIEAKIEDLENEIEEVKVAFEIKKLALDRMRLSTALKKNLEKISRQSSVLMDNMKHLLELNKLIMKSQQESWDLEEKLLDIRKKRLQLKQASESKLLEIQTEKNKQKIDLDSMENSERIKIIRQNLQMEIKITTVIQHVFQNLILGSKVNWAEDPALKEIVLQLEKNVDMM
# UniProt Q9NR28: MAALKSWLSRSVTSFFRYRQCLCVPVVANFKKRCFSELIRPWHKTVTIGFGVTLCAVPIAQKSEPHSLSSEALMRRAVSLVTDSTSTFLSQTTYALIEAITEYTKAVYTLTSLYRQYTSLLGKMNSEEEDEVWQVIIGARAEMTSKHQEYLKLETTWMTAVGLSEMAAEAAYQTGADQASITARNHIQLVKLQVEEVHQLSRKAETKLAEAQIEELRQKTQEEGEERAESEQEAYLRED
# UniProt Q9C0I1: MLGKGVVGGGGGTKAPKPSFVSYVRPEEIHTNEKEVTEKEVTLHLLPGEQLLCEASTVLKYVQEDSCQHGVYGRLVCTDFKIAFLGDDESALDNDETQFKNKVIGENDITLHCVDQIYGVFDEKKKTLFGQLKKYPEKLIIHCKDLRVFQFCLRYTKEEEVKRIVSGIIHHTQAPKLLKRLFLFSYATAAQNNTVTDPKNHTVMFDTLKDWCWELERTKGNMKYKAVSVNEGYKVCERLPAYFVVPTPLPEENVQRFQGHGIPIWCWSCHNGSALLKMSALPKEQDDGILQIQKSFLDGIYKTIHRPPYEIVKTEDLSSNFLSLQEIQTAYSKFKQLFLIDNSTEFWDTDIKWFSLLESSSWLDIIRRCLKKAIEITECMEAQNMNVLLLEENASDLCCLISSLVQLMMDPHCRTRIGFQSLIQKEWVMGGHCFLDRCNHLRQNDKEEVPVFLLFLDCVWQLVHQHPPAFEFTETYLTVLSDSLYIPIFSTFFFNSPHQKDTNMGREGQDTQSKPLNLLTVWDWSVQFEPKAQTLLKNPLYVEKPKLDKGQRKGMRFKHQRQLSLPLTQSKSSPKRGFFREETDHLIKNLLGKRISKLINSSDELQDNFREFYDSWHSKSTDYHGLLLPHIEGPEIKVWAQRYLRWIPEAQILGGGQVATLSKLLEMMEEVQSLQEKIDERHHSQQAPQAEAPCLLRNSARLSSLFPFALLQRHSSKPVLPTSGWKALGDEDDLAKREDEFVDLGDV
# UniProt Q9H8E8: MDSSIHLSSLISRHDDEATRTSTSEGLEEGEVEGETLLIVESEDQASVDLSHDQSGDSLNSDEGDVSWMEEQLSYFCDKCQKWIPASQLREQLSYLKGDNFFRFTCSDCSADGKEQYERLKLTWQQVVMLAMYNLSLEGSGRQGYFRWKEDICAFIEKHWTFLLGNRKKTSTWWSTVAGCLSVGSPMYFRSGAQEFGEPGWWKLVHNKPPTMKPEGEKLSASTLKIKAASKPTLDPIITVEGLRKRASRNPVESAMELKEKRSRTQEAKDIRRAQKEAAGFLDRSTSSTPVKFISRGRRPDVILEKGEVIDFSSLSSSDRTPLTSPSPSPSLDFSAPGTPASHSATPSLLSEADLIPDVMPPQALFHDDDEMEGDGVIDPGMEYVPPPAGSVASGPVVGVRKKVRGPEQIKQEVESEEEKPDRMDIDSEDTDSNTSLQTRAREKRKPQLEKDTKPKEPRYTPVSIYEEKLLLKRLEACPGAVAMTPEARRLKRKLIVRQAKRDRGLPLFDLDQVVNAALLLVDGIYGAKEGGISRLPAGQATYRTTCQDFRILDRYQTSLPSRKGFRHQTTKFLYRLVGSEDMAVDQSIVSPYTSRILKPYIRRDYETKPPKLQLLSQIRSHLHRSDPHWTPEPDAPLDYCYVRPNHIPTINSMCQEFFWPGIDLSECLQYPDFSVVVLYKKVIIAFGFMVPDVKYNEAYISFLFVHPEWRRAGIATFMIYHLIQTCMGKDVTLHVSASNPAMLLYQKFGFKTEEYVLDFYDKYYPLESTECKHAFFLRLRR
# UniProt Q9NPL8: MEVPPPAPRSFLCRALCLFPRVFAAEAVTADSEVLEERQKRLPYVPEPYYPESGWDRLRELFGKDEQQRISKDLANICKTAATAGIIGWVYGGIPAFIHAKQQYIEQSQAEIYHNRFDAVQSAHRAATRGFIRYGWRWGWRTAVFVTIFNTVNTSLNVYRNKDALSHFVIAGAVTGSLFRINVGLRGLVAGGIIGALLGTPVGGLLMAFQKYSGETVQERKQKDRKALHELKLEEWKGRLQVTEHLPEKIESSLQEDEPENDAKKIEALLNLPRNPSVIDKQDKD
# UniProt Q9NQT8: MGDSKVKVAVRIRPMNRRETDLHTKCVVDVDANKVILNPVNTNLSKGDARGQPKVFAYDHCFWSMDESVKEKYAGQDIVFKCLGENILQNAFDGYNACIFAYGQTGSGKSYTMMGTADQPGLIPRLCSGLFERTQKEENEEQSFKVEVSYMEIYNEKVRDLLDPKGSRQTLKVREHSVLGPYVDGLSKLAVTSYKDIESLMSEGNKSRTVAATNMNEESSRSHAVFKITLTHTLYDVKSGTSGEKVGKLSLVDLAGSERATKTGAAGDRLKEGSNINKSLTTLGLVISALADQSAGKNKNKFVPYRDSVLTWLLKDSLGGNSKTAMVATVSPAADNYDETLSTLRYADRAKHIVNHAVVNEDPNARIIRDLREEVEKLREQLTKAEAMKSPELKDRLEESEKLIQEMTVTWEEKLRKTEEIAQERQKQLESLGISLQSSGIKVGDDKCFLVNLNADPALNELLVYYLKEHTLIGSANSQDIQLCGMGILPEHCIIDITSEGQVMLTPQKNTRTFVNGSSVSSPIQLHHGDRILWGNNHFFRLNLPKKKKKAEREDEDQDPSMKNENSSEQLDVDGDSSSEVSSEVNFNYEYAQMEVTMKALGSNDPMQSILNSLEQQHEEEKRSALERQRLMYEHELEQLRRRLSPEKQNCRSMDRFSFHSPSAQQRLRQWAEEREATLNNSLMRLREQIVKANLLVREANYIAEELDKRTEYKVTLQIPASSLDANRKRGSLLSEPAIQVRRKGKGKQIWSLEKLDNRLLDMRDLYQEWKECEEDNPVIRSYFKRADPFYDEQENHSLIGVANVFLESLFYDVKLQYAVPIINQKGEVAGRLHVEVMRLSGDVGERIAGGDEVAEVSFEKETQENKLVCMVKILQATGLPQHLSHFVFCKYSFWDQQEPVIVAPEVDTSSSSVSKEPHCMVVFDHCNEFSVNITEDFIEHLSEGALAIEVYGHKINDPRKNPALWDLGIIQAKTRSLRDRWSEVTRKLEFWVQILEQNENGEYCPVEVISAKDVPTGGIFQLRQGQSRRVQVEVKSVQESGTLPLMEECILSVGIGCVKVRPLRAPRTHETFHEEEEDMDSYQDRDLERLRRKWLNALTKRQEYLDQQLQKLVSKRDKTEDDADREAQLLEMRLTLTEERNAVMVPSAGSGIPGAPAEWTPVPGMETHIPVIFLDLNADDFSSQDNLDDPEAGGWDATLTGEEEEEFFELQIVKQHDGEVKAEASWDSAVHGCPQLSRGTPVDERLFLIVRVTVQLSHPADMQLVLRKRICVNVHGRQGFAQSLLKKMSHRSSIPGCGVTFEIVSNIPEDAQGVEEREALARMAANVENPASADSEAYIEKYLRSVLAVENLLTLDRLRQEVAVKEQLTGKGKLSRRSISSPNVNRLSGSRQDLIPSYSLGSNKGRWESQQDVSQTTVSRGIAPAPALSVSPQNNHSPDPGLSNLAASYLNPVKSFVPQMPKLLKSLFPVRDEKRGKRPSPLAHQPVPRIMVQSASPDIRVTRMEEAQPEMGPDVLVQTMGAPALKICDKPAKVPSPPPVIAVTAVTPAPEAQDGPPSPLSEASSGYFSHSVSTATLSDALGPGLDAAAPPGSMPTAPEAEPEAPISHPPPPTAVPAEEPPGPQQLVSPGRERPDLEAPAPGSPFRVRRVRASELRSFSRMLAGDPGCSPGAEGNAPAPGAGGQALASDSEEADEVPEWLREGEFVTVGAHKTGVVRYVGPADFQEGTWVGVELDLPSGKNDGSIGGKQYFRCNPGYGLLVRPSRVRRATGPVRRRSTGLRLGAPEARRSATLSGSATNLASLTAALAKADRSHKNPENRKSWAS
# UniProt Q9BZH6: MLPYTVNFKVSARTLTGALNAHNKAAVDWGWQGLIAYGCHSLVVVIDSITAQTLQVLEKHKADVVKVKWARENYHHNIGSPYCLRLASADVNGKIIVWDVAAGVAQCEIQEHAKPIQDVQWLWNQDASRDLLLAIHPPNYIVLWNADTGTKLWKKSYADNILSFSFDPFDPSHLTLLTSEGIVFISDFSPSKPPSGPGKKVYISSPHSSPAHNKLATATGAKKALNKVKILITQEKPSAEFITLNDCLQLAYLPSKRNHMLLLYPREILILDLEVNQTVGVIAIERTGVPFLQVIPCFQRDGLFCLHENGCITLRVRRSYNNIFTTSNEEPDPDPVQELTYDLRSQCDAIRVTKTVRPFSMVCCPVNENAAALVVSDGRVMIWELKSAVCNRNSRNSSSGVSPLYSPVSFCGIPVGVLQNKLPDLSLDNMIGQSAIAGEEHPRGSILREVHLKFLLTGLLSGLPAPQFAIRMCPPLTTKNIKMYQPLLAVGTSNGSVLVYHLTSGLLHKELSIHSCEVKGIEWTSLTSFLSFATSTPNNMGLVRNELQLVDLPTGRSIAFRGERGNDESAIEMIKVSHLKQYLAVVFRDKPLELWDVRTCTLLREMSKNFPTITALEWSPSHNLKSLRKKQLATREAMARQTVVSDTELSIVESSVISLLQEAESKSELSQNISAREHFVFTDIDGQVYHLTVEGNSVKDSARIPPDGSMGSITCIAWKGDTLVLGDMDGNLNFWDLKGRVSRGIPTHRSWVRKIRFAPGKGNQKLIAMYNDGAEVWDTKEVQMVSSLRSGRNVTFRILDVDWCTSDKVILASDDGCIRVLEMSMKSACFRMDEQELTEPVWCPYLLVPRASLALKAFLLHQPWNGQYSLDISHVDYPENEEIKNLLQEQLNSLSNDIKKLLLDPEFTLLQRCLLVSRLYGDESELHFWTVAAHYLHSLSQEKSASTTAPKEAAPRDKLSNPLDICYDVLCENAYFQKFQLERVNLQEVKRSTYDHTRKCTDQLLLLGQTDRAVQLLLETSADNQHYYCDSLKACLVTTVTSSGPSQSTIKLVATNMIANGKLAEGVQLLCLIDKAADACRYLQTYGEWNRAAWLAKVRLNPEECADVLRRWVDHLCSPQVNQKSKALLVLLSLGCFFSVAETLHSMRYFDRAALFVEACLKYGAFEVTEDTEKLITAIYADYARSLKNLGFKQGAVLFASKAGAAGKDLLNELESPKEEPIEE
# UniProt Q9NRX1: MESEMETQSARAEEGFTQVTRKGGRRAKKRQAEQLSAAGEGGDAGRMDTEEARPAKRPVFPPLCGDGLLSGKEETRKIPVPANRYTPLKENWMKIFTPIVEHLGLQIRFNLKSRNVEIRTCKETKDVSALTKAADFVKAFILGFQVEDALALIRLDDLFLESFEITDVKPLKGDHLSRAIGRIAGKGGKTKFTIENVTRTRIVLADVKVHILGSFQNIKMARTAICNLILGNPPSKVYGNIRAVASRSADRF
# UniProt Q9H0F6: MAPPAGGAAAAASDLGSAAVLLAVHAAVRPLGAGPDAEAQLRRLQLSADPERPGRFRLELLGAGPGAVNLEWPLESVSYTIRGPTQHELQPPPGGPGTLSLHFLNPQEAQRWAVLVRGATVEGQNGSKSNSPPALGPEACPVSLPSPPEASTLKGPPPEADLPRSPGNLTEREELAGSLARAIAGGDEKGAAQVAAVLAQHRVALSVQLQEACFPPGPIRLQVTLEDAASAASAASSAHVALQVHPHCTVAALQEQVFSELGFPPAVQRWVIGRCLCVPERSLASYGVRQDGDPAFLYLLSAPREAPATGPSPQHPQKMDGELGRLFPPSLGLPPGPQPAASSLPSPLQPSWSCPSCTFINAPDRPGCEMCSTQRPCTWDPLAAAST
# ± gives the standard deviation of the averaged measurements. The list shows a part of the results.
# Compound: Nc1nc2c(ncn2[C@@H]2O[C@H](COP(=O)(O)OP(=O)(O)OP(=O)(O)O)[C@@H](O)[C@H]2O)c(=O)[nH]1 [guanosine triphosphate]
# Experiment: NP40-soluble protein abundance relative to vehicle (solubility fold change) (ratio); higher = more soluble protein in presence of GTP
# Details: concentration: 0.1mM
# Method in brief: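 Each value is a fold change relative to the detergent-processed vehicle, calculated per replicate from vsn-normalised intensities. Jurkat crude lysate received eight concentrations (0.1 to 10 mM) for 10 min at room temperature and 3 min at 37 °C, then was solubilised in 0.8% NP40 with benzonase (60 min, 4 °C). The ultracentrifuged supernatant was TMT-labelled and run by LC-MS/MS in three independent experiments.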
row,Target,NP40-soluble protein abundance
1,RHOF (UniProt Q9HBH0),1.13 ± 0.1
2,MRPL44 (UniProt Q9H9J2),1.07 ± 0.11
3,FN3KRP (UniProt Q9HA64),0.9717 ± 0.0097
4,SFXN1 (UniProt Q9H9B4),0.976 ± 0.055
5,ANLN (UniProt Q9NQW6),0.943 ± 0.04
6,EXOSC4 (UniProt Q9NPD3),1.07 ± 0.061
7,UniProt Q9C035 and related entries,1.05 ± 0.013
8,MRPL40 (UniProt Q9NQ50),1.06 ± 0.2
9,CENPH (UniProt Q9H3R5),0.926 ± 0.063
10,UniProt Q9NR28 and related entries,0.964 ± 0.011
11,UniProt Q9C0I1 and related entries,1.06 ± 0.052
12,UniProt Q9H8E8 and related entries,1.019 ± 0.0094
13,SCAF1 (UniProt Q9H7N4),1.04 ± 0.034
14,BOLA2 (UniProt Q9H3K6),0.949 ± 0.085
15,UniProt Q9NPL8,0.984 ± 0.047
16,NCOA5 (UniProt Q9HCD5),1.03 ± 0.053
17,UniProt Q9H7Z6,1.05 ± 0.029
18,KIF13B (UniProt Q9NQT8),1.05 ± 0.049
19,WDR11 (UniProt Q9BZH6),1.3 ± 0.42
20,PNN (UniProt Q9H307),1.06 ± 0.029
21,LSG1 (UniProt Q9H089),1.04 ± 0.03
22,UniProt Q9C0E8 and related entries,0.921 ± 0.042
23,YTHDC2 (UniProt Q9H6S0),1.24 ± 0.19
24,UniProt Q9NPG3 and related entries,1.01 ± 0.086
25,DEF6 (UniProt Q9H4E7),0.989 ± 0.052
26,UniProt Q9BZL1,1.07 ± 0.053
27,PNO1 (UniProt Q9NRX1),1.04 ± 0.082
28,UniProt Q9H0F6 and related entries,0.983 ± 0.072
29,UniProt Q9H3H3-2|Q9H3H3-3|Q9H3H3,1.05 ± 0.055

# An excerpt of these results, tab-delimited:
row	Target	NP40-soluble protein abundance
25	DEF6 (UniProt Q9H4E7)	0.989 ± 0.052
26	UniProt Q9BZL1	1.07 ± 0.053
